From publication PMC10781510
These are yes or no findings as the source states them, for the method shown. Binding seen in cells or lysates may run through a third protein. For some assays here: Binding can be weak; no strength is given. Tags and fused reporters may be left off the sequences shown. Values belong to the molecule of their own block, whether it stands above or below them.

Assays:
[1] = molecular target: T1, full-length GASZ fused to the N-terminal half of YFP (mouse) (UniProt Q8VD46); test: split reporter; bimolecular fluorescence complementation with N- and C-terminal halves of YFP fused to GASZ constructs, cotransfected into cells
T1 sequence: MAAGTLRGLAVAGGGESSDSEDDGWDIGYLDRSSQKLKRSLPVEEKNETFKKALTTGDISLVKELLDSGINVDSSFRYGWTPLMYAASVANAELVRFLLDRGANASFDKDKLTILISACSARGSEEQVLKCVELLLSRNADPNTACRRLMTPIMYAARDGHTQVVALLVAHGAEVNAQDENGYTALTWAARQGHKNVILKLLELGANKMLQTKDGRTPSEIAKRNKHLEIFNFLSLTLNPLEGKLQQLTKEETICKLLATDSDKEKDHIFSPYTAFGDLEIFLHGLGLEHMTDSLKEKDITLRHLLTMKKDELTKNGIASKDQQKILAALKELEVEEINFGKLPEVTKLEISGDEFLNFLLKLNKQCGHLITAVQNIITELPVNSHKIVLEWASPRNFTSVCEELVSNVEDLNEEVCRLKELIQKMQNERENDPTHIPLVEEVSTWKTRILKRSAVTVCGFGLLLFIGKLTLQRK

NYFP-GASZ-ΔMLS (mouse) = test: as above

binding [1]: binds
Molecule: GASZ-ΔMLS fused to the C-terminal half of YFP (mouse) (domain or fragment)

binding (NYFP-GASZ-ΔMLS (mouse)): no binding
B1: CYFP-GASZ-Δ345/401 (protein, UniProt Q8VD46)
chain: MAAGTLRGLAVAGGGESSDSEDDGWDIGYLDRSSQKLKRSLPVEEKNETFKKALTTGDISLVKELLDSGINVDSSFRYGWTPLMYAASVANAELVRFLLDRGANASFDKDKLTILISACSARGSEEQVLKCVELLLSRNADPNTACRRLMTPIMYAARDGHTQVVALLVAHGAEVNAQDENGYTALTWAARQGHKNVILKLLELGANKMLQTKDGRTPSEIAKRNKHLEIFNFLSLTLNPLEGKLQQLTKEETICKLLATDSDKEKDHIFSPYTAFGDLEIFLHGLGLEHMTDSLKEKDITLRHLLTMKKDELTKNGIASKDQQKILAALKELEVEEINFGKLPCEELVSNVEDLNEEVCRLKELIQKMQNERENDPTHIPLVEEVSTWKTRILKRSAVTVCGFGLLLFIGKLTLQRK
